Data published in the supplement of paper PMC11006884.
Most of the targets with a hit are listed elsewhere, so they are rarer here than in the full data. Single values of this set are uncertain. The entries are a selection whose mix differs from that of the whole data set.

Amino acid sequences for entries named in this document (tags omitted). A change or cut given only in a name is not applied to a line headed by its entry.
UniProt Q2TAA2: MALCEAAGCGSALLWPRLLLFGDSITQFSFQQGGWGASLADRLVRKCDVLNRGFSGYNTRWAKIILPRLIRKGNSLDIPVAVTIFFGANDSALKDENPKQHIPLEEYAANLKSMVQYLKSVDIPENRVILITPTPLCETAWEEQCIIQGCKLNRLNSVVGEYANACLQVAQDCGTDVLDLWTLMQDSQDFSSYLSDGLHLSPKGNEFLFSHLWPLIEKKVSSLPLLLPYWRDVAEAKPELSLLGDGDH
UniProt Q29RF7: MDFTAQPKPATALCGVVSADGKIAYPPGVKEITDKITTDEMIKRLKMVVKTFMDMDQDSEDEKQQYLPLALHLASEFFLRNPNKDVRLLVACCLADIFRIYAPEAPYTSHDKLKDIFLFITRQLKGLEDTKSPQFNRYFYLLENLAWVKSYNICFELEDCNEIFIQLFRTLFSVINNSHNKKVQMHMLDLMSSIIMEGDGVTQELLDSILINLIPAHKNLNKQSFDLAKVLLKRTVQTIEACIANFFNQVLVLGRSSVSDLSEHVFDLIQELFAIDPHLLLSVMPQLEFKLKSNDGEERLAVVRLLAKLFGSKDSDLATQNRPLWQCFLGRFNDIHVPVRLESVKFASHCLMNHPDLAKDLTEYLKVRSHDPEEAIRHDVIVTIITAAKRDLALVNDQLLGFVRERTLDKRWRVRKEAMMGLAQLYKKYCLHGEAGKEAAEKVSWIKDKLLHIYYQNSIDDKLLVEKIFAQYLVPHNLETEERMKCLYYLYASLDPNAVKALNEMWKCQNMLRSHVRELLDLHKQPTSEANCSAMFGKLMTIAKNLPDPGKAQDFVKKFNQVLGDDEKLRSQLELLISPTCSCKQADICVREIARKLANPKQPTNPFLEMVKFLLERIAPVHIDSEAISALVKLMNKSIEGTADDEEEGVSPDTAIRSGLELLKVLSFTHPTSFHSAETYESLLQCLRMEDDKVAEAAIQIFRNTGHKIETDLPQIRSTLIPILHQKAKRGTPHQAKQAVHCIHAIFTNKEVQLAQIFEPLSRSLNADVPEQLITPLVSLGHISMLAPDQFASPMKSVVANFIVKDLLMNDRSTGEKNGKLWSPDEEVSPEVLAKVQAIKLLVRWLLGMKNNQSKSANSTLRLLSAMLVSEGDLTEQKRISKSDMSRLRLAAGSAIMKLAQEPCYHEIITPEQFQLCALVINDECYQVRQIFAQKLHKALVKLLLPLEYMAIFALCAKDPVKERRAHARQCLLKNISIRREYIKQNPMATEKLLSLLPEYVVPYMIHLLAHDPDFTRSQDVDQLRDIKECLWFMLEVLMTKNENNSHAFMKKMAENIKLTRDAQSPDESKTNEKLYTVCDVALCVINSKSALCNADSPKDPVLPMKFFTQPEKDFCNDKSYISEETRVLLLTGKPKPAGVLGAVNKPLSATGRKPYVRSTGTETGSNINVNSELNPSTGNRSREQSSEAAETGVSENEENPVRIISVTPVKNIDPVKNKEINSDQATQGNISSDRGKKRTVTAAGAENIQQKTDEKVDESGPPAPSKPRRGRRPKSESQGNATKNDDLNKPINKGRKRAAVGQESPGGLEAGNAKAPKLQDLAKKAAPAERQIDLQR
UniProt Q15061: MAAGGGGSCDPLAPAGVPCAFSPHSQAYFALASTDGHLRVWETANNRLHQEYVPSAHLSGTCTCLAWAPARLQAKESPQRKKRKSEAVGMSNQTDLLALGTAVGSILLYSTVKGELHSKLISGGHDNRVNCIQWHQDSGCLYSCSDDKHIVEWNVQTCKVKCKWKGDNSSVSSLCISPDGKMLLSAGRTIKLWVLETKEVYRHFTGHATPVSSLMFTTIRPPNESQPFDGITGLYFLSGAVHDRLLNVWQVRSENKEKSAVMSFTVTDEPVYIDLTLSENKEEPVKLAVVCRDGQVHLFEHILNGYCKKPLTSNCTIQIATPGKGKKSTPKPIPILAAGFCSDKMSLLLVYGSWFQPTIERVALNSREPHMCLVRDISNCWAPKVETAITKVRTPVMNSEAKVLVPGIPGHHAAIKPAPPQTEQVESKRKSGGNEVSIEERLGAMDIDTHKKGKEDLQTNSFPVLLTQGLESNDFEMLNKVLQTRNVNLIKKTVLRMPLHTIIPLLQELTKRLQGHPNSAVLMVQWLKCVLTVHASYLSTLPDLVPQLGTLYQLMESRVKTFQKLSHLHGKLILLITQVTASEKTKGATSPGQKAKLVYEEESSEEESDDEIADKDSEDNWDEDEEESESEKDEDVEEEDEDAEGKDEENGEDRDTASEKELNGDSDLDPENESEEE
UniProt Q15723: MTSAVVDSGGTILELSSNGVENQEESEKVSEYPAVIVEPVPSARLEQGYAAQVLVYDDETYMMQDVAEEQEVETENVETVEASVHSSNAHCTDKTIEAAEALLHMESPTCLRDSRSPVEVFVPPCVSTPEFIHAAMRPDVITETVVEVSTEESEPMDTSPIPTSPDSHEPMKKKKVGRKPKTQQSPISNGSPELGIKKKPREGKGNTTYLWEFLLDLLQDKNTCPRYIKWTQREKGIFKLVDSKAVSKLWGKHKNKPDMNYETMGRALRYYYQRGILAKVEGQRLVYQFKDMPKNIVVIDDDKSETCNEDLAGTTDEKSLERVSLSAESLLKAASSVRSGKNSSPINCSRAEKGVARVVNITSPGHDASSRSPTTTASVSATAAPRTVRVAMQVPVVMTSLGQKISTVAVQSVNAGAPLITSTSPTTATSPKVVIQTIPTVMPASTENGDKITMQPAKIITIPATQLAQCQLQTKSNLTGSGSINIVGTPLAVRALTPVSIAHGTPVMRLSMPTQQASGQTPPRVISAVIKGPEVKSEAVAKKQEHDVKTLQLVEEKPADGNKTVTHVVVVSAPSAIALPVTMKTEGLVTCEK
UniProt Q15366, whole entry, looked up: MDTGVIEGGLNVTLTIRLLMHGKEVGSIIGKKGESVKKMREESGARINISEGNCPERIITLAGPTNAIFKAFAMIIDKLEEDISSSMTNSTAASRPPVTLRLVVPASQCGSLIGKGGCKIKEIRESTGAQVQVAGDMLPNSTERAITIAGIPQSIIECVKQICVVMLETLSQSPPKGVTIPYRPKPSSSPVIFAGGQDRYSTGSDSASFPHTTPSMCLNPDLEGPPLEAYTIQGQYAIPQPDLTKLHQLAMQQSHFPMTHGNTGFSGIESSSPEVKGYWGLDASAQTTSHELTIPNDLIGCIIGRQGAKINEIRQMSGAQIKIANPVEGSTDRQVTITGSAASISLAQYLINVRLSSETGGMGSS
UniProt Q1L5Z9: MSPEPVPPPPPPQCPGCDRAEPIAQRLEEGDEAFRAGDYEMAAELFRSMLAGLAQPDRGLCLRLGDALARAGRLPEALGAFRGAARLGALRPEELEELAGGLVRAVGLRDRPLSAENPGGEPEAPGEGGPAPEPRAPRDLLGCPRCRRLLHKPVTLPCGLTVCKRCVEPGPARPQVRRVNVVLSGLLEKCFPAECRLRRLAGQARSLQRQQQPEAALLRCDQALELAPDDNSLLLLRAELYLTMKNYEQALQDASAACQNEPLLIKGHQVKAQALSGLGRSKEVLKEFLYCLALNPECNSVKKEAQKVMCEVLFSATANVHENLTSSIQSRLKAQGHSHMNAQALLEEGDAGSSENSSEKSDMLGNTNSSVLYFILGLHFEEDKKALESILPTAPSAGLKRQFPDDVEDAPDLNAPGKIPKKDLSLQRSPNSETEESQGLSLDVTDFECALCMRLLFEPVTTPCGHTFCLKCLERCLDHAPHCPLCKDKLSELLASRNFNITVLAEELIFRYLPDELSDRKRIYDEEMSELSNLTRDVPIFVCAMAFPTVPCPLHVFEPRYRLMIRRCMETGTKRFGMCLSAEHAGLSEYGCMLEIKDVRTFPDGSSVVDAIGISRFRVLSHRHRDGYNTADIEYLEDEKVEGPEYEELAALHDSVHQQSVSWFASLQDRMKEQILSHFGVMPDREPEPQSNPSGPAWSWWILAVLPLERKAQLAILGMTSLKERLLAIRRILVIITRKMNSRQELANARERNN
UniProt Q15170: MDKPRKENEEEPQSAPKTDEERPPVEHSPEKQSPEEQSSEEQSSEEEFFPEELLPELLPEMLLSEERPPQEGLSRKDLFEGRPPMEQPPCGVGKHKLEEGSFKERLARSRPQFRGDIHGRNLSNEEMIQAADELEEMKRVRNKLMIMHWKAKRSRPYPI
UniProt Q15386: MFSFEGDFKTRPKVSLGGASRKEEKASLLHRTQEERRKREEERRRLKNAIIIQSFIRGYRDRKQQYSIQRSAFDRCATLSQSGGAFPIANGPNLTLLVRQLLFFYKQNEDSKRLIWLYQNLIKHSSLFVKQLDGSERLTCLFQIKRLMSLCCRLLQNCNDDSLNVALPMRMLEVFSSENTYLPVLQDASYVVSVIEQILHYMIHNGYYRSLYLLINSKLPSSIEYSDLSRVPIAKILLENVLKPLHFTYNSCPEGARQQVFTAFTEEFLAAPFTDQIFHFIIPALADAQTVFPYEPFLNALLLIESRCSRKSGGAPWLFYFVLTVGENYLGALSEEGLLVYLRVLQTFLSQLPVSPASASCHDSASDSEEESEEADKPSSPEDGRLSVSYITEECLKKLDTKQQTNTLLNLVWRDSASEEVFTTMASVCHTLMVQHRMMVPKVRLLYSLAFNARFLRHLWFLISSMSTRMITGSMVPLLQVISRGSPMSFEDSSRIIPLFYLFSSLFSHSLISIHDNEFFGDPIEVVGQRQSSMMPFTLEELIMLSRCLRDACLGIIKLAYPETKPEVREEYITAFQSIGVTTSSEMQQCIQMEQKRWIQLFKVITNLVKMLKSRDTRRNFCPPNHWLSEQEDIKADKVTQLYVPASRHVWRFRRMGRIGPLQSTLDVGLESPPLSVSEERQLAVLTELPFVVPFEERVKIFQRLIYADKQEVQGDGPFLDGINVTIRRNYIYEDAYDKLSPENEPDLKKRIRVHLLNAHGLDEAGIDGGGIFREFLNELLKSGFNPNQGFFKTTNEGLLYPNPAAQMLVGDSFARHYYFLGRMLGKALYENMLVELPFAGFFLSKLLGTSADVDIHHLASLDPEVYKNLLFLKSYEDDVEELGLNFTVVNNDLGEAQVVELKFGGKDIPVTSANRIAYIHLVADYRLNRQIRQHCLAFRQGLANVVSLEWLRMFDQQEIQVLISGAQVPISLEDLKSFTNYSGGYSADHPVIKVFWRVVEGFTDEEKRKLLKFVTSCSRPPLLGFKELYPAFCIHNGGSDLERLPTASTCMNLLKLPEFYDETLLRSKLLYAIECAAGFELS
UniProt Q15910, whole entry, looked up: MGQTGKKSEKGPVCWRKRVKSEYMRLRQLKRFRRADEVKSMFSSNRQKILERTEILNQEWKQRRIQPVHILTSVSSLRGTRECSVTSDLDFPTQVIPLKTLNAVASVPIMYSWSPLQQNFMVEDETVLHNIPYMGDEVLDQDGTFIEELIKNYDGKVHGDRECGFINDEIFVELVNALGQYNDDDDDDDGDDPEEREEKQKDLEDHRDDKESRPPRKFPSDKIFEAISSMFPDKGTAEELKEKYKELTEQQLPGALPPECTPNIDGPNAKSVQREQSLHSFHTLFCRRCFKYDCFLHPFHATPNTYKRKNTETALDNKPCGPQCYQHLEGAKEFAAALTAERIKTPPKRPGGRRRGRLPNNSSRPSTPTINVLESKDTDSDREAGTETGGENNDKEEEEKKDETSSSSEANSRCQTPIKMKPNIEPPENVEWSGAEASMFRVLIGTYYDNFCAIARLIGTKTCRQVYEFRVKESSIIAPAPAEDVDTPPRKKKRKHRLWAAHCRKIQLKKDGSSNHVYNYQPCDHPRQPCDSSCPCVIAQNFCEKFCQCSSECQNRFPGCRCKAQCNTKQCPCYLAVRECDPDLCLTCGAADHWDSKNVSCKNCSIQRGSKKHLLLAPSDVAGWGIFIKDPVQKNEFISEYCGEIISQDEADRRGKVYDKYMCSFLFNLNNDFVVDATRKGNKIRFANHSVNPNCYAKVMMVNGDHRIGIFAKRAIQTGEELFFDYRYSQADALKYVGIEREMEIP
UniProt Q16514: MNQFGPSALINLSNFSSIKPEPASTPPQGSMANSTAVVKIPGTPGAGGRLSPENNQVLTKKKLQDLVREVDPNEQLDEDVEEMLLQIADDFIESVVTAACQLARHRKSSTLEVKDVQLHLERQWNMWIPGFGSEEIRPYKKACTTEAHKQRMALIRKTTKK
UniProt Q53EZ4: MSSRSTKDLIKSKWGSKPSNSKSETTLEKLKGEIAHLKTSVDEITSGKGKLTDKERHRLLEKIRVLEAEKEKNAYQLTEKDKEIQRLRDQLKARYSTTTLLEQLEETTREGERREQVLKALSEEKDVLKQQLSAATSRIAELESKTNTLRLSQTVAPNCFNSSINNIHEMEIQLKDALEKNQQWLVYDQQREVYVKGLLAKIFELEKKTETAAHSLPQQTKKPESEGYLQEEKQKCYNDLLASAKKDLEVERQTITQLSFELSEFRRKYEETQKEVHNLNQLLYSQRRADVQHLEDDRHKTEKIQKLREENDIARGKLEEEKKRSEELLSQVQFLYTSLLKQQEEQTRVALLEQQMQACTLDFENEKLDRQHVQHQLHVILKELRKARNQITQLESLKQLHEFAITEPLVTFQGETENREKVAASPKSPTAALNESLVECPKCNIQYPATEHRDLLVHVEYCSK

Compound: COC(=O)/C=C/c1ccccc1 [methyl cinnamate]
Experiment: log2 ratio of iodoacetamide-alkyne labeling of the cysteine site, DMSO over compound (competition); higher = stronger covalent engagement of the cysteine by the compound, active = 1 or more
Conditions: 500 µM; treatment time 1 h; system: HEK293T cell lysate
Summary of the method: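 HEK293T lysate (2 mg/mL) was incubated with electrophile (500 µM) or vehicle for 1 h at ambient temperature and then with iodoacetamide alkyne for 1 h. Labelled proteins were clicked to sCIP-TMT reagents, pooled, digested, enriched on streptavidin and measured by Orbitrap Eclipse LC-MS/MS with FAIMS, with FragPipe quantification. The per-cysteine log2 competition ratio is mean control-channel reporter intensity over mean compound-channel reporter intensity. Across three replicates with duplicate channels, cysteines quantified in only one replicate were excluded.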

log2 ratio of iodoacetamide-alkyne labeling, inactive:
IAH1 C9 (UniProt Q2TAA2) 0.429, TSR1 C329 (UniProt Q2NL82) 0.061, PDS5A C93 (UniProt Q29RF7) -0.079, LARS2 C167 (UniProt Q15031) -0.322, PDK2 C45 (UniProt Q15119) 0.203, UniProt Q15046_C496 0.185, WDR43 C9 (UniProt Q15061) 0.271, LRRC41 C297 (UniProt Q15345) 0.172, TBCE C301 (UniProt Q15813) 0.0681, ELF2 C307 (UniProt Q15723) 0.497, PCBP2 C118 (UniProt Q15366) 0.151, GLYR1 C231 (UniProt Q49A26) -0.274, UniProt Q15365_C194 0.0881, HS1BP3 C287 (UniProt Q53T59) 0.373, MAP7D1 C251 (UniProt Q3KQU3) 0.0544, LONRF2 C166 (UniProt Q1L5Z9) -0.0253, DPYSL2 C504 (UniProt Q16555) 0.034, TCEAL1 C88 (UniProt Q15170) 0.308, UBE3C C252 (UniProt Q15386) -0.0482, PDCD4 C275 (UniProt Q53EL6) 0.162, LLGL1 C483 (UniProt Q15334) 0.0381, TRIP11 C1722 (UniProt Q15643) 0.107, EZH2 C83 (UniProt Q15910) 0.398, UBE3C C158 (UniProt Q15386) 0.0777, PTGES3 C75 (UniProt Q15185) 0.241, RALBP1 C451 (UniProt Q15311) 0.278, CDK10 C8 (UniProt Q15131) 0.232, UniProt Q15750_C62 0.335, UniProt Q15365_C54 0.315, TBC1D10B C573 (UniProt Q4KMP7) 0.174, PDS5A C581 (UniProt Q29RF7) 0.265, TAF12 C143 (UniProt Q16514) 0.213, SLC39A14 C118 (UniProt Q15043) 0.0567, IMMT C603 (UniProt Q16891) 0.121, ELF2 C470 (UniProt Q15723) 0.427, LRRC14 C71 (UniProt Q15048) 0.451, CEP55 C359 (UniProt Q53EZ4) 0.186, UniProt Q15149_C530 0.243
